{"source": "patent US20180299431A1", "about": "“Explant Assay to Determine the Potential for Compositions to Promote or to Inhibit Neural Tube Defects” (Board of Supervisors of Louisiana State University and …, priority 2015, published 2018)", "tested_on": "diabetic NOD pregnancies", "test": "NOD diabetic pregnancies and folinic acid supplementation", "format": "in vivo, mouse", "protocol": "All animal experiments were performed with prior approval from the Pennington Biomedical Research Center IACUC, and were conducted in accordance with the “Guide for the care and use of laboratory animals” of the United States National Institutes of Health. Animals were housed with a 12-hour light/dark cycle, with access to food and water ad libitum. Mice of the Non-Obese Diabetic strain (NOD/ShiLtJ, The Jackson Laboratory, Bar Harbor, Me.; sometimes referred to as “NOD” mice), as well as male mice of strain FVB were kept on Purina™ 5001 diet (calories provided by: Protein, 28.5%; Fat, 13.5%; Carbohydrate, 58%. LabDiet, Purina Mills Inc., Gray Summit, Mo.). Females of strain FVB were kept on Purina 5015 diet (calories provided by: Protein, 19.8%; Fat, 25.3%; Carbohydrate, 54.8%). Blood glucose levels were monitored weekly in NOD mice. Once blood glucose exceeded 250 mg/dl, females were considered diabetic, and were then used for mating and production of embryos. Diabetic as well as normoglycemic NOD female mice were mated to normoglycemic NOD male mice; once NOD males became hyperglycemic, they were retired from the experiment and were no longer used. Supplementation with folinic acid (12.5 mg/kg body weight, once per week by intraperitoneal injection) was initiated at the age of 10 weeks in 56 NOD females. […]", "data": [{"smiles": "Nc1nc(=O)c2c([nH]1)NCC(CNc1ccc(C(=O)N[C@@H](CCC(=O)O)C(=O)O)cc1)N2C=O", "note": "(mixture of isomers) [folinic acid]", "values": [{"measurement": "time to subsequent onset of hyperglycemia", "setting": "NOD females supplemented from age 10 weeks, 12.5 mg/kg once per week i.p., vs unsupplemented NOD females, Kaplan-Meier p=0.8639", "result": "did not significantly affect"}, {"measurement": "maternal hyperglycemia levels at mating and at dissection", "setting": "supplemented vs non-supplemented groups, ANOVA p=0.51", "result": "not significantly different"}]}]}
